Laboratory results taken from patent publication US10358434B2, “2-(3-pyridinyl)-1H-benzimidazole derivative compound and medicament containing same” (NIHON MEDI-PHYSICS CO., LTD., priority 2014, dated 2019).
Some of these results come from one statement about several compounds together.

The compounds below were run against T1, human CYP11B2 (Homo sapiens, UniProt P19099) (assay: Aldosterone production inhibition in V79-B2 cells expressing human CYP11B2 (ELISA)). Details: from Tables 5 and 6.
T1 construct: expressed in transfected cells; host or cells: V79 cells (Chinese hamster lung-derived fibroblasts, from ECACC through DS Pharma Biomedical)
T1 sequence (P19099 25-503): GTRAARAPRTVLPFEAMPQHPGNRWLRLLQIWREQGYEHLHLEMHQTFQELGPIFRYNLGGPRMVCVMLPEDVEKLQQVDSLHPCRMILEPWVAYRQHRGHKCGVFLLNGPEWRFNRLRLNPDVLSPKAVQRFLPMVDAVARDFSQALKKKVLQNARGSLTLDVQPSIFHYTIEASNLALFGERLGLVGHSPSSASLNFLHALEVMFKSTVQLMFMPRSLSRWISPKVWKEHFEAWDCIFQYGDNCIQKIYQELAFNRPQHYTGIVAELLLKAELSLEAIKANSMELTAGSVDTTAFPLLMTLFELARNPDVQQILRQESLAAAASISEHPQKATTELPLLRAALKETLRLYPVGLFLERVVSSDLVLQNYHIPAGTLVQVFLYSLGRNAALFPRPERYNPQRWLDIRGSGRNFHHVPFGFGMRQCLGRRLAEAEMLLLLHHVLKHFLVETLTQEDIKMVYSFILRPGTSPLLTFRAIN
Assay type: cell-based
Procedure: This inhibition experiment can be carried out by the following operations. Human CYP11B1 and human CYP11B2 are allowed to individually express in Chinese hamster lung-derived fibroblasts. Subsequently, 11-deoxycortisol is added to the cells expressing human CYP11B1 to a final concentration of 100 nmol/L, and corticosterone is added to the cells expressing human CYP11B2 to a final concentration of 100 nmol/L. At the same time, a target compound used as an analytical sample is added to each of the cells to a final concentration of 10^−4 to 10^4 nmol/L. Thereafter, the concentration of cortisol as a metabolite of CYP11B1 is measured in the cells expressing human CYP11B1 according to ELISA (Enzyme-Linked ImmunoSorbent Assay), and the concentration of aldosterone as a metabolite of CYP11B2 is measured in the cells expressing human CYP11B2 according to ELISA. Provided that the aldosterone concentration and the cortisol concentration without addition of any target compound as a sample are each set at 100%, an inhibition curve is produced, and then inhibitory activity (IC50) is calculated.
Chinese hamster lung-derived fibroblasts, V79 cells (acquired from ECACC (European Collection of Cell Cultures) through DS Pharma Biomedical), were allowed to express human CYP11B2, so as to produce V79-B2, and were also allowed to express human CYP11B1, so as to produce V79-B1. V79 cells were cultured in a DMEM medium (containing 4,500 mg/L D-glucose, L-glutamine, and 110 mg/L sodium pyruvate; manufactured by Life Technologies). V79-B2 or V79-B1 was inoculated on a microplate, and then cultured overnight. Thereafter, a mixed solution of corticosterone and a compound as a test target was added into a culture supernatant of V79-B2, and a mixed solution of 11-deoxycortisol and a compound as a test target was added into a culture supernatant of V79-B1. As a solvent for these mixed solutions, the aforementioned DMEM medium further containing 0.1 v/v % dimethyl sulfoxide was used. The concentration of corticosterone or 11-deoxycortisol was adjusted to be 100 nmol/L by addition of the solvent. As test target compounds, (R)-4-iodometomidate (IMTO), and Compounds 100, 200, 300, 400, 500, and 601 to 610 synthesized by methods shown in Examples 1, 3, 5, 6, 8, 10, 12, 14, 16, 18, 20, 22, 24, 26, and 28, respectively, were used. The aforementioned mixed solution was prepared such that the concentration of each compound was 10^−4 to 10^4 nmol/L in the mixed solution. One hour later, the culture supernatant of V79-B1 was recovered, and the concentration of cortisol as a metabolite of CYP11B1 was measured by ELISA (Enzyme-Linked ImmunoSorbent Assay). Moreover, four hours later, the culture supernatant of V79-B2 was recovered, and the concentration of aldosterone as a metabolite of CYP11B2 was measured by ELISA. Provided that the concentration of aldosterone or the concentration of cortisol obtained when none of IMTO and Compounds 100, 200, 300, 400 and 500 was added was defined as 100%, an inhibition curve was produced, and the inhibitory activity (IC50) of each compound was then calculated.
In Tables 5 and 6, the term “Selectivity factor” indicates a quotient of the mean value of IC50 for cortisol production inhibition divided by the mean value of IC50 for aldosterone production inhibition. In addition, the symbol “n” indicates the number of tests.

Question: For FCCCn1c(-c2cncc(Cn3ccnc3)c2)nc2cc(F)c(Cl)cc21 [Compound 500, 6-Chloro-5-fluoro-1-(3-fluoropropyl)-2-[5-(imidazol-1-ylmethyl)pyridin-3-yl]benzimidazole], which “specificity to CYP11B2 in comparison to IMTO” value (“specificity to CYP11B2” below) is on record?
Answer: higher specificity to CYP11B2, in comparison to IMTO

Question: How did the “specificity to CYP11B2” value turn out when CCn1c(-c2cncc(Cn3ccnc3)c2)nc2ccc(I)cc21 [Compound 608, 2-[5-{(1H-imidazol-1-yl)methyl}pyridin-3-yl]-1-ethyl-6-iodo-1H-benzo[d]imidazole] was run?
Answer: higher specificity to CYP11B2, in comparison to IMTO

Question: With Cn1c(-c2cncc(Cn3ccnc3)c2)nc2ccc(I)cc21 [Compound 607, 2-[5-{(1H-imidazol-1-yl)methyl}pyridin-3-yl]-6-iodo-1-methyl-1H-benzo[d]imidazole] as the compound, how does the “specificity to CYP11B2” value read?
Answer: higher specificity to CYP11B2, in comparison to IMTO

Question: For FCCn1c(-c2cncc(Cn3ccnc3)c2)nc2cc(F)c(I)cc21 [Compound 400, 5-Fluoro-1-(2-fluoroethyl)-2-[5-(imidazol-1-ylmethyl)pyridin-3-yl]-6-iodobenzimidazole], which “specificity to CYP11B2” value is on record?
Answer: higher specificity to CYP11B2, in comparison to IMTO

Question: How did the “specificity to CYP11B2” value turn out when FCCn1c(-c2cncc(Cn3ccnc3)c2)nc2ccc(I)cc21 [Compound 604, 1-(2-Fluoroethyl)-2-[5-{(imidazol-1-yl)methyl}pyridin-3-yl]-6-iodobenzimidazole] was run?
Answer: higher specificity to CYP11B2, in comparison to IMTO

Question: How did the “specificity to CYP11B2” value turn out when COc1cc(I)cc2c1nc(-c1cncc(Cn3ccnc3)c1)n2C1CC1 [Compound 609, 1-Cyclopropyl-2-[5-(imidazol-1-ylmethyl)pyridin-3-yl]-6-iodo-4-methoxybenzimidazole] was run?
Answer: higher specificity to CYP11B2, in comparison to IMTO

Question: FCCn1c(-c2cncc(Cn3ccnc3)c2)nc2cc(F)c(Cl)cc21 [Compound 100, 6-Chloro-5-fluoro-1-(2-fluoroethyl)-2-[5-(imidazol-1-ylmethyl)pyridin-3-yl]benzimidazole] was tested. Which “specificity to CYP11B2” value did it give?
Answer: higher specificity to CYP11B2, in comparison to IMTO

Question: For CC(C)n1c(-c2cncc(Cn3ccnc3)c2)nc2ccc(I)cc21 [Compound 606, 2-[5-{(1H-imidazol-1-yl)methyl}pyridin-3-yl]-6-iodo-1-isopropyl-1H-benzo[d]imidazole], which “specificity to CYP11B2” value is on record?
Answer: higher specificity to CYP11B2, in comparison to IMTO

Question: How did the “specificity to CYP11B2” value turn out when Ic1ccc2nc(-c3cncc(Cn4ccnc4)c3)n(C3CC3)c2c1 [Compound 602, 1-Cyclopropyl-2-[3-(1H-imidazol-1-ylmethyl)pyridin-5-yl]-6-iodo-1H-benzimidazole] was run?
Answer: higher specificity to CYP11B2, in comparison to IMTO

Question: With FCCn1c(-c2cncc(Cn3ccnc3)c2)nc2cc(F)c(Br)cc21 [Compound 200, 6-Bromo-5-fluoro-1-(2-fluoroethyl)-2-[5-(imidazol-1-ylmethyl)pyridin-3-yl]benzimidazole] as the compound, how does the “specificity to CYP11B2” value read?
Answer: higher specificity to CYP11B2, in comparison to IMTO

Question: For Ic1ccc2nc(-c3cncc(Cn4ccnn4)c3)n(C3CC3)c2c1 [Compound 603, 1-Cyclopropyl-2-[3-(1H-1,2,3-triazol-1-ylmethyl)pyridin-5-yl]-6-iodo-1H-benzimidazole], which “specificity to CYP11B2” value is on record?
Answer: higher specificity to CYP11B2, in comparison to IMTO

Question: Fc1cc2nc(-c3cncc(Cn4ccnc4)c3)n(Cc3ccc(I)cc3)c2cc1Cl [Compound 605, 6-Chloro-5-fluoro-1-(4-iodobenzyl)-2-[5-(1H-imidazol-1-ylmethyl)-3-pyridinyl]-1H-benzimidazole] was tested. Which “specificity to CYP11B2” value did it give?
Answer: higher specificity to CYP11B2, in comparison to IMTO

Question: With FCCn1c(-c2cncc(Cn3cncc3I)c2)nc2cc(F)c(Cl)cc21 [Compound 610, 6-Chloro-5-fluoro-1-(2-fluoroethyl)-2-{5-(5-iodo-1H-imidazol-1-ylmethyl)pyridin-3-yl}benzimidazole] as the compound, how does the “specificity to CYP11B2” value read?
Answer: higher specificity to CYP11B2, in comparison to IMTO

Question: How did the “specificity to CYP11B2” value turn out when COC(=O)c1cncn1Cc1cncc(-c2nc3cc(F)c(Br)cc3n2CCO)c1 [Compound 300, 2-{6-Bromo-5-fluoro-2-[5-(5-methylcarboxylateimidazol-1-ylmethyl)pyridin-3-yl]benzimidazol-1-yl}ethanol] was run?
Answer: higher specificity to CYP11B2, in comparison to IMTO
